# Results from US12551536B2, “Semaglutide in medical therapy” (Novo Nordisk A/S, priority 2017, dated 2026).
# Assay: 52-week clinical trial of once-daily semaglutide in obese subjects without diabetes mellitus: change in body weight
# Assay type: in vivo, human
# Settings: calculated as (3.0/0.08)/(3.0/0.28)
# Protocol: This trial was designed as a 52-week, randomised, double-blind, placebo-controlled, sixteen-armed, parallel group, multi-centre, multinational trial comparing once-daily subcutaneous administration of semaglutide in five different doses (ranging from 0.05 mg/day to 0.4 mg/day) with placebo in obese subjects without diabetes mellitus. […] The trial was double-blinded between active and placebo treatment. To ensure a sufficiently large sample of men, no more than 70% of the trial population was allowed to be women and the randomisation was stratified according to sex. Subjects were randomised in a balanced manner (6:1 active:placebo).
# The primary endpoint was relative change from baseline in body weight (%) at 52 weeks. Key secondary endpoints included proportion of subjects with weight loss of ≥5% or ≥10% of baseline body weight at 52 weeks as well as change in body weight from baseline to 52 weeks. […] All medical problems either observed by the site staff or the subject was reported as an adverse event and evaluated for severity and causality by the investigator. […]
# Statistical analyses of effect endpoints: The primary analysis was based on a ‘jump-to-reference’ multiple imputation approach (J2R-MI). […] The primary endpoint was calculated in each complete data set and analysed using an analysis of covariance (ANCOVA) model. […]
substance,measurement,value
"N^6.26-{18-[N-(17-carboxyheptadecanoyl)-L-γ-glutamyl]-10-oxo-3,6,12,15-tetraoxa-9,18-diazaoctadecanoyl}-[8-(2-amino-2-propanoic acid),34-L-arginine]human glucagon-like peptide 1(7-37) [Sema]","Greater body weight reduction at the same level of gastrointestinal adverse events, semaglutide vs liraglutide",around 3 times
